# Data: the supplement of paper PMC11732987, “Enantioselective OTUD7B fragment discovery through chemoproteomics screening and high-throughput optimisation” (Communications Chemistry, 2025)
# Protein sequences, listed by entry. Tags and fused reporters are not part of them. Lines headed by an entry give the natural chain unless they say otherwise; changes in a name come on top.
# UniProt Q9P1Y6: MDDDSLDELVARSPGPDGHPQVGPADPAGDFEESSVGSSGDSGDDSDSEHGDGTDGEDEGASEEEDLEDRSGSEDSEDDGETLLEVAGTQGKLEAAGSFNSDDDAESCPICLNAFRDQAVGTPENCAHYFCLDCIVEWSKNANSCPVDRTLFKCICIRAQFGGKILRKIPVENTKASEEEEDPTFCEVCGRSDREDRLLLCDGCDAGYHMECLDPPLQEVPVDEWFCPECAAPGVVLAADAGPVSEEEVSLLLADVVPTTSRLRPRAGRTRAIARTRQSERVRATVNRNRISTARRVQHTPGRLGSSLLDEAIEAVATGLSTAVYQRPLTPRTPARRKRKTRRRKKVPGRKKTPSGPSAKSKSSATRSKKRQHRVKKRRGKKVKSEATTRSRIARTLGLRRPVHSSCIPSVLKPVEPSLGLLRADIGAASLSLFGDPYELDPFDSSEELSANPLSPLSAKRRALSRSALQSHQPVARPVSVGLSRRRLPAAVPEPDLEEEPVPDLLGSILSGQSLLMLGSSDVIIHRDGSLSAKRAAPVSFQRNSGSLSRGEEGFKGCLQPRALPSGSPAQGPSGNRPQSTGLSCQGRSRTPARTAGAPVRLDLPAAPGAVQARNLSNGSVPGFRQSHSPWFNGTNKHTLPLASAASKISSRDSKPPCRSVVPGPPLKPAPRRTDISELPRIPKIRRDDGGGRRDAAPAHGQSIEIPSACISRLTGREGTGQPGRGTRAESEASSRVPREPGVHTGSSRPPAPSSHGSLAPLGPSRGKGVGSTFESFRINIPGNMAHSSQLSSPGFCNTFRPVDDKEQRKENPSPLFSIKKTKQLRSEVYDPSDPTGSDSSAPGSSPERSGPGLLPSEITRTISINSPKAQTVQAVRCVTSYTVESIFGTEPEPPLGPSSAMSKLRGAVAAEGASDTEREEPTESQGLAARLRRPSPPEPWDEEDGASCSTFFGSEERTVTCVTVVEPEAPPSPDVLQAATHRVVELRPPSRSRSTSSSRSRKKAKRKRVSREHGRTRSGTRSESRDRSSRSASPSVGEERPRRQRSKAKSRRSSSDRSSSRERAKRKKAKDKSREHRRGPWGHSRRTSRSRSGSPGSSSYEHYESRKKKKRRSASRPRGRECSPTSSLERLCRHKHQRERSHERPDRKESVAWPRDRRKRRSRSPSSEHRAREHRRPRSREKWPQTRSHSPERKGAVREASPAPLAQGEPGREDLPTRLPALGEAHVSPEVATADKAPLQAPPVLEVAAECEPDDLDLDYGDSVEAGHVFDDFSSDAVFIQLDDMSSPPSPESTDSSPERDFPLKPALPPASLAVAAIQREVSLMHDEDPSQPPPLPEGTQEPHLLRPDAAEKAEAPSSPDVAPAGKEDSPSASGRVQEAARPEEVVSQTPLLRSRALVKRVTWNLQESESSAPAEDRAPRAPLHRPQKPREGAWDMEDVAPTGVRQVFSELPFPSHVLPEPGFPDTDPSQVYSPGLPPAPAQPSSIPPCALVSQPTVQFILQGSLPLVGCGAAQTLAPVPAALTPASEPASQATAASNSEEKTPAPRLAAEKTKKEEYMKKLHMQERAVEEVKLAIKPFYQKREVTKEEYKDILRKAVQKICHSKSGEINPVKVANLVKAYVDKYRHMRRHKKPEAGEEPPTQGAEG
# Some of the results follow. The data scatter; read single values as rough.
# Target: T1, PHRF1 C878 (UniProt Q9P1Y6)
# T1 sequence (whole entry): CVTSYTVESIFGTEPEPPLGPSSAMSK
# Test: log2 mean competition ratio of IA-DTB cysteine labelling (DMSO/compound) (log2 ratio); higher = stronger cysteine engagement by compound
# Settings: 50 µM; treatment time: 4 h; cell line lysate: HEK293T
# Method: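 IA-DTB competitive cysteine chemoproteomics in HEK293T RIPA lysate. Lysates were treated with compound 29 or 30 at 50 or 200 µM for 4 h, then IA-DTB (500 µM, 1 h), trypsin-digested, NeutrAvidin-enriched and analysed by diaPASEF. Competition ratio = intensity DMSO / intensity compound (n=4 treated, n=64 DMSO); binding: mean log2 CR ≥ 1 and p ≤ 0.05 plus QC filters. Target is the cysteine site.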
row,Compound,log2 mean competition ratio
1,O=C(CCl)N[C@H]1CCCc2ccccc21,0.119
2,O=C(CCl)N[C@@H]1CCCc2ccccc21,-0.0401

# Same assay, conditions: 200 µM; treatment time: 4 h; cell line lysate: HEK293T
row,Compound,log2 mean competition ratio
1,O=C(CCl)N[C@H]1CCCc2ccccc21,-0.0314
2,O=C(CCl)N[C@@H]1CCCc2ccccc21,0.21
